Drawing on PubChem BioAssay AID651660 (Broad Institute, 2012), this text covers inhibition for 101 molecules.

Sequences of proteins named here, by UniProt entry; tags and fusion partners are left off. A change or cut given only in a name is not applied to a line headed by its entry.
UniProt P43351: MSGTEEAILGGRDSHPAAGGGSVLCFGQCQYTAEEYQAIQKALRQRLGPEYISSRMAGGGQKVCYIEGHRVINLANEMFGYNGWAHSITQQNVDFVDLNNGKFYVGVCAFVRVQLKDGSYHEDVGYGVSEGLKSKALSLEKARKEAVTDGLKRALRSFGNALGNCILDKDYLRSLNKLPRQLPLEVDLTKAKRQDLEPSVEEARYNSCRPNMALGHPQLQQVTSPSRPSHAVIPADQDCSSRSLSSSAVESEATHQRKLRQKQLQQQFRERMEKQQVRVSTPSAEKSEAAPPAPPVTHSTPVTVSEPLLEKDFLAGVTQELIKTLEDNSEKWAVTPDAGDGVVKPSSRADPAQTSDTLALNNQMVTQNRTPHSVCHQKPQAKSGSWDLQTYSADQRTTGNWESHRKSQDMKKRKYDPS

Each structure is given as a SMILES string. “And” between values parts separate entries of the source, which are not always exact repeats. Equal entries are not always repeated. Screen size: about 1,900 compounds; about 15 (0.8%) were called active.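 The calls were made as follows: active = every replicate shows at least 50% inhibition; inconclusive = mean inhibition at least 50% but some replicate below; inactive = the rest.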 Some of the results follow.

This assay addresses DNA repair protein RAD52 homolog (Homo sapiens) (UniProt P43351). As to the kind of experiment: RAD52 ssDNA annealing inhibitors, primary screen, biochemical, FRET, single point (AID 651660).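 Also: 0% = median of neutral control wells and 100% = median of positive control wells.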 As to conditions: Recombinant RAD52 ssDNA annealing, FRET fluorescence, 30 min; at 18.7 µM; stronger effect = higher value.
Turning to `COC(=O)c1ccccc1NC(=O)NCc1ccccc1`, the inhibition (as a rule, the relative decrease from the control value, in per cent) was inactive: -1.68%.
Then `CCCCN1C[C@H](O)[C@@H](O)[C@H](O)[C@H]1CO`, with inactive: 9.71%; and `c1ccc2c(c1)CCCC2C1=NCCN1` (stereo unspecified), with inactive: -4.07%.
In the case of `C/C=C/Cn1c(SC)nc2c1c(=O)[nH]c(=O)n2C` it was inactive: 0.316%.
In the case of `CC(C)C(=O)Nc1cccnc1` it was inactive: -3.83%; in that of `Clc1ccc(CCNc2ncnc3nc[nH]c23)cc1`, inactive: 1.95%.
Regarding `CCOc1ccc(C(=O)C(C)=O)c(OCC)c1`, the inhibition was inactive: -0.868%.
In the case of `COc1ccc(CN(CCC(c2ccc(F)cc2)C2CCOC(C)(C)C2)C(=O)c2ccco2)cc1` (stereo unspecified) it was inactive: 25.2%; in that of `COc1ccc(CCCC(=O)O)c(C)c1`, inactive: -12.7%.
Then `CCOC(=O)c1cc2cc3ccccc3cc2[nH]1`, with inactive: -86%; and `COc1ccc(CNC(=O)C2CCN(C(=O)[C@@H](CC(C)C)NC(=O)OC(C)(C)C)CC2)cc1`, with inactive: 2.06%.
In the case of `CC(C)(CO)CNC(=O)CC1C(=O)NCCN1CC(c1ccccc1)c1ccccc1` (stereo unspecified) it was inactive: -15.5%.
Regarding `CCOc1cc(C=O)ccc1OCCSc1ccc(C)cc1`, the inhibition was inactive: 2.25%.
Consider `COCC1CCCN(Cc2cn[nH]c2-c2cc3ccccc3o2)C1` (stereo unspecified), for which the inhibition is inactive: 0.195%.
Take `O=C1OC(c2ccc(O)cc2)(c2ccc(O)cc2)c2ccccc21`: the inhibition is inactive: -2.96%.
Then `Cc1ccc(N(CC2=NCCN2)c2cccc(O)c2)cc1`, with inactive: -2.03% and inactive: -1.72% and inactive: -1.9%; and `O=Cc1ccc(OC(=O)c2cccnc2)cc1`, with inactive: -1.95%; and `O=C(CN1CCN(Cc2ccccc2)CC1)N1CCCc2c1c(=O)oc1ccc(O)cc21`, with inactive: 11.7%.
`COc1ccccc1C1(CC(=O)N2CCCCC2)CCOC(C(C)C)C1` (stereo unspecified): the inhibition is inactive: 7.87%.
`Cn1c(=O)[nH]c(=O)c2c1ncn2CCN1CCOCC1`: the inhibition is inactive: -9.6%.
As for `O=C(NCCO)c1ccc(Cl)c(Cl)c1`, the inhibition is inactive: 11%.
With `COc1ccc(N2CCN(C(=S)NCc3ccccc3)CC2)cc1`, the inhibition is inactive: -1.31%.
Then `N#Cc1cc2c([nH]c1=O)CCCC2`, with inactive: 4.5%; and `COc1ccc(C=NCC2COc3ccccc3O2)cc1OC` (stereo unspecified), with inactive: 6.1%; and `c1ccc(CC2=NCCN2)cc1`, with inactive: -6.79%.
Then `O=C(Nc1ccc(C(=O)NC2CCCCC2)cc1)c1cccnc1`, with inactive: -12%; and `O=C(NC1CCCCC1)N1CCc2[nH]c3ccccc3c2C1`, with inactive: -7.75%.
As to `CCOC(=O)C(=O)N1CCN(c2ccccc2OC)CC1`, the inhibition was inactive: -2.13%.
As to `CC(C)(Oc1ccc(CCNC(=O)c2ccc(Cl)cc2)cc1)C(=O)O`, the inhibition was inactive: -4.68%.
Then `OCCN1CCN(CCCN2c3ccccc3Sc3ccc(C(F)(F)F)cc32)CC1`, with active: 65.2%.
In the case of `CN(C)c1ccc(O)c2c1CC1CC3[C@@H](N(C)C)C(=O)C(C(N)=O)=C(O)[C@]3(O)C(=O)C1=C2O` (stereo partly specified), the inhibition was inactive: 39.1%.
In the case of `CC(=O)OCC(=O)[C@H]1CC[C@H]2[C@@H]3CC=C4C[C@@H](O)CC[C@]4(C)[C@H]3CC[C@]12C` it was inactive: -2.28%; in that of `O=C(O)C1Cc2ccccc2CN1S(=O)(=O)c1ccccc1` (stereo unspecified), inactive: -4.56%; in that of `Clc1ccc2c(c1)C(N1CCNCC1)=Nc1ccccc1O2`, inactive: 2.92%.
Then `O=C1c2ccccc2C(=O)C1c1ccccc1`, with inactive: -1.1%.
Consider `CCc1cc(=O)oc2cc(OCC=C(C)C)ccc12`, for which the inhibition was inactive: 6.25%.
Take `CC(C)=CC/C=C1\CCC(C(=O)O)C(C(=O)O)C1` (stereo unspecified): the inhibition is inactive: -9.36%.
For the molecule `O=C(CN1C(=O)/C(=C/c2cccc(Br)c2)SC1=S)Nc1cccnc1`, the inhibition was inactive: -38.2%.
In the case of `N/C(=N\OS(=O)(=O)c1ccc2ccccc2c1)c1cccnc1` it was inactive: -4.19%.
Regarding `CCOC(=O)N1CCC(=C2c3ccc(Cl)cc3CCc3cccnc32)CC1`, the inhibition is inactive: -6.11%.
In the case of `Cc1ccc2[nH]c(=O)c(Cc3ccccc3)c(O)c2c1` it was inactive: -9.59%.
Then `CC1CCN(C(=O)Oc2ccccc2)CC1`, with inactive: 2.36%.
In the case of `COCCCC/C(=N\OCCN)c1ccc(C(F)(F)F)cc1` it was inactive: 14.2%.
Turning to `C[C@]12CCC(=O)C=C1CC[C@@H]1[C@@H]2C(=O)C[C@@]2(C)[C@H]1CC[C@]2(O)C(=O)CO`, the inhibition is inactive: 5.33%.
As to `O=C(O)CCSc1nc2ccccc2s1`, the inhibition is inactive: -17.9%.
On to `CC(C)(C)C(=O)Nc1cccc(OC(F)(F)C(F)Cl)c1` (stereo unspecified), for which the inhibition is inactive: 15.6%.
In the case of `C[C@@H]1C[C@H]2[C@@H]3C[C@H](F)C4=CC(=O)C=C[C@]4(C)[C@@]3(F)[C@@H](O)C[C@]2(C)[C@@]1(O)C(=O)CO` it was inactive: 12.3%; in that of `O=C(O)Cc1ccc(-c2ccccc2)cc1`, inactive: -6.53%; in that of `CCOC(=O)C1=C2c3ccc4ccccc4c3CC(C)(C)N2C(=O)C1=O`, inactive: -12.6%.
In the case of `O=C(/C=C/c1ccc(F)cc1)N1CC[C@@]2(O)CCCC[C@H]2C1` it was inactive: 8.57%; in that of `O=C1N=c2ccccc2=C1c1[nH]c(=S)[nH]c1O`, inactive: 14.8%; in that of `CCCCCCCCCC(=O)OCC(O)CO` (stereo unspecified), inactive: 5.35%.
As for `COc1ccccc1N1C(=O)C2CC(C)=C(C)CC2C1=O` (stereo unspecified), the inhibition is inactive: -0.714%.
In the case of `O=C1C(O)CC2c3ccccc3CC3(CCCC3)N12` (stereo unspecified) it was inactive: -23%; in that of `CN1CCN(C2=Nc3ccccc3Oc3ccc(Cl)cc32)CC1`, inactive: 6.55%.
As for `Cc1cccc(N2C(=O)C3C(c4ccccc4)OC4(C(=O)c5ccccc5C4=O)C3C2=O)c1` (stereo unspecified), the inhibition is inactive: -11.3%.
In the case of `Cc1nc2ccccc2c(=O)n1N` it was inactive: -4.82%; in that of `COc1ccc(OC)c(-c2oc3ccccc3c(=O)c2O)c1`, inactive: 0.777%.
On to `CCN(CC)CCOC(=O)C1(C2CCCCC2)CCCCC1`, for which the inhibition is inactive: -19.4%.
As to `N#CCC(N)=C(C#N)C#N`, the inhibition is inactive: -37.2%.
As to `Cc1ccc2c(c1)c1c(n2C)C(=O)CCC1`, the inhibition is inactive: 8.41%.
`CN(C)CCCN1c2ccccc2Sc2ccc(C(F)(F)F)cc21`: the inhibition was inactive: 29.1%.
Regarding `O=C1C2CC=C(Cl)CC2C(=O)N1CCc1c[nH]c2ccccc12` (stereo unspecified), the inhibition was inactive: -12.5%.
In the case of `CCNC1=C(Cl)C(=O)c2ccccc2C1=O` it was inactive: 9.01%.
Then `COC(=O)C1=C(C)NC(C)=C([N+](=O)[O-])C1c1ccccc1C(F)(F)F` (stereo unspecified), with inactive: 4.19%.
Then `Nc1ccc(-c2nc3ncccc3o2)c(Cl)c1`, with inactive: 2.78%; and `C/C=C/c1ccc(OCCCCN2CC(C)CC(C)C2)c(OC)c1` (stereo unspecified), with inactive: 1.05%.
Consider `O=C(Cc1ccc(Br)cc1)c1ccc(O)cc1O`, for which the inhibition was inactive: 2.85%.
Take `CCn1cc(CN2N=C(C)CC2c2ccccc2)c(C)n1` (stereo unspecified): the inhibition is inactive: -16.9%.
As for `CC[N+](C)(CC)CCOC(=O)C(O)(c1ccccc1)C1CCCCC1` (stereo unspecified), the inhibition was inactive: -4.94%.
On to `CCOc1ccccc1Oc1coc2cc(OCC(=O)O)ccc2c1=O`, for which the inhibition is inactive: -12.3%.
In the case of `CN(C)c1ccc(C(CN)c2c[nH]c3ccccc23)cc1` (stereo unspecified) it was inactive: -2.21%; in that of `COc1ccc2[nH]c(=O)c3c(c2c1)OC(C)(C)C=C3`, inactive: -5.72%.
For `O=C(NC(=S)Nc1ccc(N2CCN(C(=O)c3ccccc3)CC2)cc1)c1cccs1`, the inhibition is inactive: -1.18%.
Then `COc1cc(/C=C/C(=O)O)cc(S(=O)(=O)NCCCO)c1OC`, with inactive: -11%; and `Cc1ccc(-c2nnc(-c3ccc4c(c3)OCO4)o2)cc1`, with inactive: -10.6%; and `CC[N+](C)(C)c1cccc(O)c1`, with inactive: -5.91%.
Take `COc1ccc(C(=O)NCC2OCCc3ccccc32)cc1` (stereo unspecified): the inhibition is inactive: -3.94%.
Then `CCCCN(CCCC)CCCOC(=O)c1ccc(N)cc1`, with inactive: 3.29%; and `O=C(O)CCCCCCCC(=O)O`, with inactive: -9.18%; and `O=C(NCc1ccc2c(c1)OCO2)c1ccc2c(c1)OCCO2`, with inactive: -8.16%.
Then `NS(=O)(=O)c1cc(C2(O)NC(=O)c3ccccc32)ccc1Cl` (stereo unspecified), with inactive: -8.05%.
Then `O=C(NC(=S)Nc1ccc2c(c1)OCCO2)c1ccccc1F`, with inactive: -2.94%; and `CC(=O)Nc1ccc(OS(=O)(=O)c2c(C)cc(C)cc2C)cc1`, with inactive: 7.13%; and `COc1ccc(NC(=O)C2CCCN2C(=O)OC(C)(C)C)cc1` (stereo unspecified), with inactive: -0.715%.
On to `CCCc1cc(C(N)=S)ccn1`, for which the inhibition was inactive: -4.37%.
Regarding `CC(=O)c1cc2c(cc1NC(=O)c1ccco1)OCCO2`, the inhibition was inactive: -17.2%.
As to `CC(C)CCOCC(=O)Nc1cccc(C(=O)O)c1`, the inhibition is inactive: -8.13%.
Take `Cc1ccc2[nH]c3c(c2c1)CN(C)CC3`: the inhibition is inactive: -1.25%.
In the case of `CC(=O)OC(CC(=O)O)C[N+](C)(C)C` (stereo unspecified) it was inactive: -2.75%; in that of `CC1(C)Cc2ccccc2C(C(Cc2ccccc2)C(N)=O)=N1` (stereo unspecified), inactive: 3.53%.
In the case of `COc1ccc2oc(C)c(C(N)=O)c2c1` it was inactive: 2.34%; in that of `Cn1cc(CN(CCO)Cc2cccs2)c(-c2cccc(Cl)c2)n1`, inactive: 12.5%.
In the case of `CN1CCC(=C2c3ccccc3C=Cc3ccccc32)CC1` it was inactive: 3.15%; in that of `CNCCC=C1c2ccccc2CCc2ccccc21`, inactive: 4.52%.
For the molecule `CC[C@]1(O)CC2CN(CCc3c([nH]c4ccccc34)[C@@](C(=O)OC)(c3cc4c(cc3OC)N(C=O)[C@H]3[C@@](O)(C(=O)OC)[C@H](OC(C)=O)[C@]5(CC)C=CCN6CC[C@]43[C@@H]65)C2)C1` (stereo partly specified), the inhibition is inactive: -22.9%.
In the case of `O=C(c1ccccc1F)c1cc2c(cc1[N+](=O)[O-])OCCO2` it was inactive: -0.243%; in that of `Cc1ccc(S(=O)(=O)NC(=O)Nc2cc(C)ccc2F)cc1`, inactive: -14.5%; in that of `O=C1OC(c2ccccc2)=C/C1=C/c1cccs1`, inactive: -5.59%.
In the case of `O=C1C(Cc2ccccc2)NC(=S)N1c1ccccc1` (stereo unspecified) it was inactive: -7.95%; in that of `Cc1ccc(/C(=C\CN2CCCC2)c2ccccn2)cc1`, inactive: 4.68%.
